The campaign covered roughly 330,000 compounds. About 7,700 (2.3%) were called active. The inconclusive results got no clear call from the source; some entries with a clear call stand among them for comparison. Calls follow the shape of the dose curve; as a rule, active = well fitted inhibition curve with a large enough effect; inconclusive = small, poorly fitted or top-dose-only effect, or effect the other way; inactive = flat fitted curve, though single readings scatter. Potencies beside an inconclusive call are fits to weak or partial responses and may not hold up.
assay: qHTS screen for small molecules that inhibit ELG1-dependent DNA repair in human embryonic kidney (HEK293T) cells expressing luciferase-tagged ELG1; details: HEK293T ELG1-luciferase reporter, luminescence, 16 h, DNA damage induced by 5-fluorouridine; activity change, negative = inhibition: at 46.1 µM (top of the series); also: nearly all actives have a fitted effect of over 55% in size
Procedure, shortened: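 Luminescence from the luciferase reporter, measured 30 min after ONE-Glo reagent at room temperature, was the read-out. Beforehand, 2,000 cells per well were exposed for 16 hr at 37 °C to 5-fluorouridine together with compound or vehicle.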
% is scaled to controls: 0 for no effect and ±100 for the full control effect; potency is read from the fitted curve at half-maximal effect.

Row | SMILES | Potency | activity change, negative = inhibition
1 | CCOc1ccc(C(=O)Nc2cccc(NC(=O)c3cccs3)c2)cc1[N+](=O)[O-] | inconclusive: 29.1 µM [inhibitor, single point] | 
2 | CN(c1ccccc1)S(=O)(=O)c1ccc(Cl)c(C(=O)OCC(=O)NCc2ccco2)c1 |  | inactive: 10.8%
3 | COc1ccc(-c2nnc(SCC(=O)N3CCc4ccccc4C3)o2)cc1 | inconclusive: 3.66 µM [activator, single point] | 
4 | CCC(=O)c1ccc2c(c1)OCCO2 |  | inactive: 26.2%
5 | CCCn1c(N)c(C(=O)CSc2n[nH]c(-c3ccccc3F)n2)c(=O)n(C)c1=O | inconclusive: 10.3 µM [inhibitor, partial curve, poor fit] | 
6 | N#Cc1cccc(NC(=O)CSc2nnc(C3CC3)n2C2CC2)c1 | inconclusive: 35.5 µM [activator, single point] | 
7 | COc1cc2c(cc1NC(=O)C(C)Sc1cccc[n+]1[O-])oc1ccccc12 (stereo unspecified) | inconclusive: 10.3 µM [activator, partial curve] | 
8 | COC(=O)CN1C(c2cccc(Cl)c2)=Nc2ccc(Cl)cc2C1c1ccccc1 (stereo unspecified) | inconclusive: 16.4 µM [inhibitor, single point] | 
9 | CC(=O)c1ccc(S(=O)(=O)N2CCN(C(=O)c3ccc(COc4ccccc4)o3)CC2)cc1 | inconclusive: 23.1 µM [inhibitor, partial curve, poor fit] | 
10 | CCOc1cnc(-c2c(-c3ccccc3Cl)noc2C)o1 | inconclusive: 18.3 µM [inhibitor, single point] | 
11 | OC(CSc1c(Cl)cccc1Cl)CN1CCN(c2ccc(F)cc2)CC1 (stereo unspecified) | inconclusive: 32.6 µM [inhibitor, partial curve, poor fit] | 
12 | O=C(CSc1nc2ccccc2c(=O)n1CCCN1CCOCC1)Nc1ccc(F)c(Cl)c1 | inconclusive: 29.1 µM [inhibitor, single point] | 
13 | C[C@H]1CN([C@@H](C)CO)C(=O)Cc2cc(NC(=O)CCC(F)(F)F)ccc2O[C@H]1CN(C)Cc1ccc(C(F)(F)F)cc1 | inconclusive: 29.1 µM [inhibitor, single point] | 
14 | COc1cccc2nc3cc(C)c(C)cc3nc12 | inconclusive: 1.64 µM [activator, partial curve] | 
15 | Cc1ccc(C)c2[nH]c(=O)c(CN(Cc3ccco3)C(=O)Nc3ccccc3)cc12 | active: 5.17 µM | 
16 | Nc1ccc(SCc2nc3cccc4c3n2CCC4)cc1 | inconclusive: 20.6 µM [activator, partial curve] | 
17 | COC(=O)N1CCN(c2ccc(C(C)=O)cc2)CC1 | inconclusive: 25.9 µM [activator, single point] | 
18 | O=C(/C=C/c1ccco1)OCC(=O)c1ccc(OC(F)F)cc1 | inconclusive: 4.11 µM [inhibitor, full curve, poor fit] | 
19 | CCOc1ccccc1C(=O)Nc1cc(OC)ccc1OC | inconclusive: 14.6 µM [inhibitor, partial curve, poor fit] | 
20 | Cc1ccc(S(=O)(=O)N2CCOC23CCN(C(=O)c2ccc(Cl)cc2Cl)CC3)cc1 | inconclusive: 29.1 µM [inhibitor, single point] | 
21 | COc1ccc(NC(=O)C2CCCCN2S(=O)(=O)c2ccc(F)cc2)c(OC)c1 (stereo unspecified) | inconclusive: 18.4 µM [inhibitor, single point] | 
22 | CCOc1ccc(C(=O)C(C)OC(=O)Cn2[nH]c(=O)c3ccccc3c2=O)cc1 (stereo unspecified) |  | inactive: 16.1%

Copied from the listing (20 entries):
Row | SMILES | Potency | activity change, negative = inhibition
3 | COc1ccc(-c2nnc(SCC(=O)N3CCc4ccccc4C3)o2)cc1 | inconclusive: 3.66 µM [activator, single point] | 
4 | CCC(=O)c1ccc2c(c1)OCCO2 |  | inactive: 26.2%
5 | CCCn1c(N)c(C(=O)CSc2n[nH]c(-c3ccccc3F)n2)c(=O)n(C)c1=O | inconclusive: 10.3 µM [inhibitor, partial curve, poor fit] | 
6 | N#Cc1cccc(NC(=O)CSc2nnc(C3CC3)n2C2CC2)c1 | inconclusive: 35.5 µM [activator, single point] | 
7 | COc1cc2c(cc1NC(=O)C(C)Sc1cccc[n+]1[O-])oc1ccccc12 (stereo unspecified) | inconclusive: 10.3 µM [activator, partial curve] | 
8 | COC(=O)CN1C(c2cccc(Cl)c2)=Nc2ccc(Cl)cc2C1c1ccccc1 (stereo unspecified) | inconclusive: 16.4 µM [inhibitor, single point] | 
9 | CC(=O)c1ccc(S(=O)(=O)N2CCN(C(=O)c3ccc(COc4ccccc4)o3)CC2)cc1 | inconclusive: 23.1 µM [inhibitor, partial curve, poor fit] | 
10 | CCOc1cnc(-c2c(-c3ccccc3Cl)noc2C)o1 | inconclusive: 18.3 µM [inhibitor, single point] | 
11 | OC(CSc1c(Cl)cccc1Cl)CN1CCN(c2ccc(F)cc2)CC1 (stereo unspecified) | inconclusive: 32.6 µM [inhibitor, partial curve, poor fit] | 
12 | O=C(CSc1nc2ccccc2c(=O)n1CCCN1CCOCC1)Nc1ccc(F)c(Cl)c1 | inconclusive: 29.1 µM [inhibitor, single point] | 
13 | C[C@H]1CN([C@@H](C)CO)C(=O)Cc2cc(NC(=O)CCC(F)(F)F)ccc2O[C@H]1CN(C)Cc1ccc(C(F)(F)F)cc1 | inconclusive: 29.1 µM [inhibitor, single point] | 
14 | COc1cccc2nc3cc(C)c(C)cc3nc12 | inconclusive: 1.64 µM [activator, partial curve] | 
15 | Cc1ccc(C)c2[nH]c(=O)c(CN(Cc3ccco3)C(=O)Nc3ccccc3)cc12 | active: 5.17 µM | 
16 | Nc1ccc(SCc2nc3cccc4c3n2CCC4)cc1 | inconclusive: 20.6 µM [activator, partial curve] | 
17 | COC(=O)N1CCN(c2ccc(C(C)=O)cc2)CC1 | inconclusive: 25.9 µM [activator, single point] | 
18 | O=C(/C=C/c1ccco1)OCC(=O)c1ccc(OC(F)F)cc1 | inconclusive: 4.11 µM [inhibitor, full curve, poor fit] | 
19 | CCOc1ccccc1C(=O)Nc1cc(OC)ccc1OC | inconclusive: 14.6 µM [inhibitor, partial curve, poor fit] | 
20 | Cc1ccc(S(=O)(=O)N2CCOC23CCN(C(=O)c2ccc(Cl)cc2Cl)CC3)cc1 | inconclusive: 29.1 µM [inhibitor, single point] | 
21 | COc1ccc(NC(=O)C2CCCCN2S(=O)(=O)c2ccc(F)cc2)c(OC)c1 (stereo unspecified) | inconclusive: 18.4 µM [inhibitor, single point] | 
22 | CCOc1ccc(C(=O)C(C)OC(=O)Cn2[nH]c(=O)c3ccccc3c2=O)cc1 (stereo unspecified) |  | inactive: 16.1%

Continuation:

Row | SMILES | Potency | activity change, negative = inhibition
23 | COc1ccc(NS(=O)(=O)c2cc(NC(=O)c3nn(C)c(=O)c4ccccc34)ccc2OC)cc1 | inconclusive: 16.4 µM [activator, single point] | 
24 | CCCCSc1nc(C)cc(C)c1S(=O)(=O)c1ccccc1C |  | inactive: -2.32%
25 | COc1ccc(-c2ccc(-c3nnn(CC(=O)N4CCOCC4)n3)cc2)cc1 | inconclusive: 4.61 µM [activator, full curve] | 
26 | CC(=O)Oc1ccc(Cn2cnc3cc4ccccc4cc32)cc1 |  | inactive: 12.8%
27 | CCn1c(C)cc(=S)c2ccccc21 |  | inactive: 0%
28 | COc1ccc(C2(c3ccc(OC)cc3)NC(=O)N(CC(=O)N(C)c3ccccc3)C2=O)cc1 | inconclusive: 14.6 µM [activator, partial curve] | 
29 | CC1COc2ccccc2N1S(=O)(=O)c1cc(Cl)ccc1Cl (stereo unspecified) | inconclusive: 2.59 µM [inhibitor, partial curve, poor fit] | 
30 | CC(C)(C)c1ccc(-c2cn(-c3ccc(Br)cc3)c3[n+]2CCCS3)cc1 | active: 4.11 µM | 
31 | COc1cccc2c1OCC(C(=O)Nc1nccs1)=C2 | inconclusive: 10.3 µM [activator, partial curve] | 
32 | CC(=O)Nc1ccc(S(=O)(=O)N2CCN=C2SCc2cccnc2)cc1 | inconclusive: 20.6 µM [inhibitor, single point] | 
33 | Cc1ccc(OCC(=O)Nc2sc3c(c2C#N)CCC3)cc1C | inconclusive: 5.01 µM [activator, partial curve] | 
34 | CC(=O)N1CCN(c2ccc(NC(=O)c3ccc(C)c([N+](=O)[O-])c3)cc2)CC1 | inconclusive: 25.9 µM [inhibitor, partial curve, poor fit] | 
35 | Cc1sc(N/N=C/c2cccnc2)nc1-c1ccccc1 |  | inactive: -3.76%
36 | COc1ccccc1CNC(=O)C1CCN(C(=O)N(C)C)CC1 | inconclusive: 25.9 µM [activator, partial curve, poor fit] | 
37 | CCNc1cc2n(c(=O)n1)CCc1cc(OC)c(OC)cc1-2 | inconclusive: 16.4 µM [activator, partial curve] | 
38 | CCNC(=S)N/N=C/c1ccc(OCCOc2ccccc2C)cc1 |  | inactive: 19.4%
39 | C=CCOc1c2ccc(C(=O)NCc3ccccc3OC)cc2nn1C |  | inactive: 2.04%
40 | O=C(O)c1ccc(N/N=C/C=C/c2ccccc2)cc1 | inconclusive: 2.91 µM [activator, partial curve] | 
41 | COCCC1CCCCN1C(=O)c1cc(COc2ccc(C)nc2)on1 (stereo unspecified) | inconclusive: 18.3 µM [activator, single point] | 
42 | CCCc1c(C)c2ccccc2[nH]c1=O | inconclusive: 23.1 µM [activator, single point] | 
43 | Cc1ccc(C(=O)Nc2ccc3c(c2)nc(CCNC(=O)c2ccco2)n3C)cc1 | inconclusive: 3.66 µM [activator, full curve] | 
44 | O=C(c1ccccc1-c1nc(-c2ccccc2)no1)N1CCCC1 | inconclusive: 14.6 µM [activator, partial curve] | 

Row | SMILES | Potency | activity change, negative = inhibition
45 | CN(C)C=Nc1ccc2nn(-c3ccccc3)nc2c1 | inconclusive: 7.31 µM [activator, partial curve] | 
46 | O=C(C[C@H]1C/C=C\CCCC(=O)OC[C@H]2CCCN2C1=O)NCCO | inconclusive: 16.4 µM [activator, partial curve] | 
47 | Cc1occc1-c1nnc(SCC(=O)NC2CCCCC2C)o1 (stereo unspecified) | inconclusive: 6.51 µM [inhibitor, single point] | 
48 | CCN(CC(=O)Nc1ccccc1SC)Cc1nc2ccccc2c(=O)[nH]1 |  | inactive: 3.85%
49 | Cc1ccc2c(c1)N(C(=O)CCC(=O)N1CCC(C(N)=O)CC1)CCO2 |  | inactive: 3.47%
50 | Cc1ccc2nc(NC(=O)COC(=O)c3ccccn3)sc2c1 | inconclusive: 3.66 µM [activator, single point] | 
51 | CCOc1ccc(C(=O)/C=C/c2ccccc2C(F)(F)F)cc1 | inconclusive: 29.1 µM [activator, single point] | 
52 | CC1Cc2ccccc2N1CC(=O)c1c(N)n(Cc2ccccc2)c(=O)n(C)c1=O (stereo unspecified) | inconclusive: 29.1 µM [inhibitor, single point] | 
53 | CC1C(=O)N2CCCc3cc(NC(=O)C(=O)NCCc4c[nH]c5ccccc45)cc1c32 (stereo unspecified) | inconclusive: 0.73 µM [inhibitor, single point] | 
54 | O=C(NCC(=O)N(c1ccc2c(c1)OCCO2)C(C(=O)NC1CCCC1)c1ccco1)c1ccco1 (stereo unspecified) | inconclusive: 29.1 µM [inhibitor, partial curve, poor fit] | 
55 | CCOc1ccc(S(=O)(=O)N2CCN(C(=O)c3ccc(C)c(S(=O)(=O)N4CCOCC4)c3)CC2)cc1 | inconclusive: 10.3 µM [inhibitor, single point] | 
56 | CCCC(=O)N(c1ccc2oc(C)c(C(C)=O)c2c1)S(=O)(=O)c1ccc(C)c([N+](=O)[O-])c1 | inconclusive: 16.4 µM [inhibitor, partial curve, poor fit] | 
57 | COc1ccc(NC(=S)N(CCc2c(C)[nH]c3ccc(C)cc23)Cc2cccnc2)cc1 | inconclusive: 23.1 µM [inhibitor, single point] | 
58 | O=C(NCCN1CCOCC1)c1ccccc1N1C(=O)[C@@H]2Cc3c([nH]c4ccccc34)C(c3ccc(F)cc3)N2C1=O (stereo partly specified) | active: 5.17 µM | 
59 | N=C(N)Sc1nc(N2CCCCC2)nc(N2CCCCC2)n1 |  | inactive: 4.8%
60 | CCCn1c(=O)c2ccccc2n2c(SCC(=O)N3CCc4ccccc4C3)nnc12 | inconclusive: 16.4 µM [inhibitor, partial curve] | 
61 | CC(C)CCNC(=O)c1cc(S(=O)(=O)N2CCCCC2)ccc1N1CCOCC1 |  | inactive: -3.85%
62 | O=C(NCCOc1ccc(Cl)cc1)C1CC(=O)N(c2ccc3c(c2)OCCO3)C1 (stereo unspecified) |  | inactive: -3.11%
63 | COCCCNC(=O)c1c(N)n(-c2cccc(S(N)(=O)=O)c2)c2nc3ccccc3nc12 | active: 11.6 µM | 
64 | COc1cc(-c2cc(C(=O)NCc3ccc(S(N)(=O)=O)cc3)c3ccccc3n2)cc(OC)c1OC | active: 13 µM | 
65 | O=C(COC(=O)c1c[nH]c2ccccc12)Nc1cccc(F)c1 |  | inactive: 1.59%
66 | CC(C)N(C(=O)Cn1c(SCC(=O)N2CCN(c3ccccc3)CC2)nc2ccccc21)C(C)C | inconclusive: 1 µM [inhibitor, partial curve, poor fit] | 

Source: PubChem BioAssay AID504467 (National Center for Advancing Translational Sciences (NCATS), 2011)
